Measurements reported in the supplement of paper PMC5949888.
± gives the standard deviation of the averaged measurements. Most values lie at the floor of the assay. Slopes are relative: functional sequences can read slightly below zero.

Tested on: Saccharomyces cerevisiae PS128 hsf1 delta, HSF1(1-493) fusion
Experiment: growth estimate (transactivation domain function in HSF1 fusion, heat-shock survival) (a.u. (slope of normalised read count over time)); higher = stronger growth at 37°C, i.e. more transactivation activity
Settings: library: random library

Substance | growth estimate
RCTAA | < -0.25
RCTTAPGPGASASQI | < -0.25
RCVPVIGTLRRNTLSLGVT | < -0.25
RCVRLYS | < -0.25
RCVVILRGKAGPGGTRWSV | < -0.25
RCVVVVGANNRKVMPLRRHR | < -0.25
RCYSALGAG | < -0.25
RDAKKGSNYLGTVGTGGTFC | < -0.25
RDCKNVRCLGF | < -0.25
RDDFEEVQLSLAQARLKKPT | < -0.25
RDDHLGGYWTNSFYVGCEQY | < -0.25
RDDSRCEP | < -0.25
RDDSVGDVHKSAIEVRLYR | < -0.25
RDEC | < -0.25
RDEPHSMGNGWCANCHLRQK | < -0.25
RDGDLGGRADAWVRMA | < -0.25
RDGPTGHVWRRPLDGVEWAY | -0.217
RDHAVSCTLLRPSFQLKAIR | < -0.25
RDIGGMNSGWPPCVHILVGC | < -0.25
RDIYP | < -0.25
RDKDVKAVPDARSGLAC | < -0.25
RDLGRC | < -0.25
RDLSDKG | < -0.25
RDMGVGLPKSPRAFDHGLLA | -0.172
RDMSVPVAIHQFL | < -0.25
RDPADLTDPLPPAPIVGRNF | < -0.25

Look-ups from above:
RCTTAPGPGASASQI | growth estimate: < -0.25
RDDFEEVQLSLAQARLKKPT | growth estimate: < -0.25
RDMSVPVAIHQFL | growth estimate: < -0.25

Further records:

Substance | growth estimate
RDPASAGVSKYD | < -0.25
RDPF | < -0.25
RDQFRN | < -0.25
RDQVKSREMPLSFPDSSLT | < -0.25
RDRHAV | < -0.25
RDRLGIRGVGKKNSLG | < -0.25
RDRRQS | < -0.25
RDRSGGLTCRAERNAGLSSC | < -0.25
RDRVAS | < -0.25
RDSARKAVCMAVSYLRWSDQ | < -0.25
RDSGLPLVRRFCE | < -0.25
RDTKKECMAEVTGAAGR | < -0.25
RDTMRVNGILNWEPMRRWGW | < -0.25
RDVGYNVHIRSRKGRPA | < -0.25
RDVRVVQ | < -0.25
RDVVCHLRRGWVAVPIKRAF | < -0.25
RDWPFIPNDTESAGPPARKI | < -0.25
RDYAACR | < -0.25
RDYL | < -0.25
REAENSQDDPCG | -0.25
REARGGSIYMRGSTRLLAGG | < -0.25
RECACQL | < -0.25
REDR | < -0.25
REDRTNPNNFVWPWA | 2.17
REF | < -0.25
REFADKRCAV | < -0.25

Substance | growth estimate
REFAG | < -0.25
REG | -0.2492 ± 0.0019
REGAAPHPARLCLAGHYTLH | < -0.25
REGEIRHLRPLNPCSA | < -0.25
REGIMIVPGTARPLQSRDHR | < -0.25
REGPGASEARYSALLALYRQ | < -0.25
REGQTCR | < -0.25
REGRLL | -0.245
REGSYTV | < -0.25
REGYFR | -0.246
REHLTRAP | < -0.25
REKQSYHQGERAA | < -0.25
REKRRVLGGESNS | < -0.25
REKRVQGATLNSSGLGETIR | < -0.25
REKTEGIGGRFPF | < -0.25
RELESILPPERKSIQRTTLR | < -0.25
RELLSRPHLGSNH | < -0.25
RELNEFYVERQSLALRWRCS | < -0.25
RELSSMGSGAVEIAHSFGQH | < -0.25
RENL | < -0.25
REPIEIGSSSQPLSPRARV | < -0.25
REPKMGF | < -0.25
REPWFYITLYIYRYAT | < -0.25
REQVHGVRDKLPESTSPPKR | < -0.25
RERFQVMG | < -0.25
RERINDWPWTPKAVIRVGKP | < -0.25

An excerpt of these results, as tab-separated lines:
Substance	growth estimate
RDRRQS	< -0.25
RDRSGGLTCRAERNAGLSSC	< -0.25

Additional results.

Substance | growth estimate
RERSSLRVGGLVEDTPS | < -0.25
RESEPPDNCPVGMGNKSETF | < -0.25
RESGPPGVLHGIC | < -0.25
RESHLRLAAWSKAEAQGSRC | < -0.25
RESTAL | < -0.25
RETGAIERWGLIGGGE | < -0.25
REVPDRRRG | < -0.25
REVSWPALFSYGGFSEVRHV | -0.203
RFAGLGGRLVELHLT | < -0.25
RFAPIVTSYP | < -0.25
RFASGDALYRDG | < -0.25
RFAWSGNTAPPIETMNLIVP | < -0.25
RFDRDGPFSVGRSAESARIS | < -0.25
RFDS | < -0.25
RFE | < -0.25
RFEAKR | < -0.25
RFGAFKILTAAPGDALKMMF | < -0.25
RFGQAMKCRE | < -0.25
RFGSRPVKPASTHIRVAFRP | < -0.25
RFHVRY | < -0.25
RFI | < -0.25
RFLCGPRTGLLVD | < -0.25
RFLFRLPPTSHSI | < -0.25
RFLGNQSDS | < -0.25
RFLHLARNIGDWLR | < -0.25
RFLICTELDLRCRTSSSESQ | < -0.25

Substance | growth estimate
RFLPWYHCTVEQ | < -0.25
RFLRTHYLRSGY | < -0.25
RFLYTSFGLV | < -0.25
RFMDPLAPSE | < -0.25
RFNDGLNQRELQLFVRRQAL | -0.231
RFPIH | -0.168
RFPLYSEVLCGWKFPSQC | < -0.25
RFPQRMLWRVRPLPGTVTLA | < -0.25
RFSG | < -0.25
RFSHSHMLL | -0.243
RFSHSRFWVCWRDNGAFRHG | < -0.25
RFSLGRMC | < -0.25
RFSPQSSPAY | < -0.25
RFTPDLVIATADFRLTM | < -0.25
RFVKYTVVEPRGLRVRGS | -0.245
RFVLYGLLIWLGESCGAFPA | < -0.25
RFVTLTRNAVSTPCNPFGGY | < -0.25
RFVTSHRRVCDGQGLRIQTP | < -0.25
RFVYK | < -0.25
RFWEGGGNRKVRRVARLFQD | < -0.25
RFWLKKSPVSVEKIGFFMAD | < -0.25
RGA | < -0.25
RGAFGPGYAMVRSKDCRLQR | < -0.25
RGAGGSFSSFYGDPRNPSNA | < -0.25
RGATQGVLCDVRGYDWDDIT | < -0.25
RGATVSQHYSSSNF | < -0.25

Some of the entries so far, in CSV form.
Substance,growth estimate
RFVTLTRNAVSTPCNPFGGY,< -0.25
RFVTSHRRVCDGQGLRIQTP,< -0.25
RFVYK,< -0.25
RFWEGGGNRKVRRVARLFQD,< -0.25
RFWLKKSPVSVEKIGFFMAD,< -0.25

The list continues:

Substance | growth estimate
RGAVGGRGSATGRRCGRNLS | < -0.25
RGCQ | < -0.25
RGCVTYRPRKWQS | < -0.25
RGDEWRSKPLDIAGV | < -0.25
RGDTYSERQYI | < -0.25
RGFLA | < -0.25
RGFM | < -0.25
RGFPDKMTAREARHECPRCG | < -0.25
RGFSVTSGVTVAFTAQRPLY | < -0.25
RGFWKS | < -0.25
RGFY | < -0.25
RGFYYLMHLNEGTWQENSHR | < -0.25
RGGAQDRLRFQCTKEPTTTT | < -0.25
RGGIYGYRGLVA | < -0.25
RGGLWRKNARR | < -0.25
RGGMRSE | < -0.25
RGGP | < -0.25
RGGSDTCAEGCLSTKASWVE | < -0.25
RGGWT | < -0.25
RGHFDVM | < -0.25
RGHLQKQAMSSVA | < -0.25
RGHRGGSIFHVYWSVCVDKS | < -0.25
RGHRIPAEVRRLDNPHFRTQ | < -0.25
RGHTHGVCYLSCRYRFFRCN | < -0.25
RGI | < -0.25
RGILLGTW | < -0.25

Substance | growth estimate
RGIRAAQLLTRALYPIPCRR | < -0.25
RGISFLLSGMSGPRSTLPWL | < -0.25
RGKPKARGRRISTINKQLSE | 0.0112
RGKQQMWQAGGNRGGSAYWI | < -0.25
RGKSGDRSEAPYLCRPDASR | -0.245
RGLASTVFRVSKGPLIHKSM | < -0.25
RGLCEERLNTRSC | < -0.25
RGLDYGRVMYIMILSDLFYY | < -0.25
RGLNARRRRLDAGQVLVGIL | < -0.25
RGMLIRSQGCRIGRLVYALR | < -0.25
RGMSAHAHEGGEFTI | -0.25
RGMTYG | < -0.25
RGNHQTDGDTHYGSNLFNQV | < -0.25
RGNI | -0.243
RGNLHFPAGDASSWEEEDKQ | < -0.25
RGNPG | < -0.25
RGNR | < -0.25
RGP | < -0.25
RGPLAGHALG | < -0.25
RGPRVV | < -0.25
RGPSNDVCSKQWRGHTGDKI | -0.228
RGPWEEGLRSHRQNVGKAKC | < -0.25
RGQ | < -0.25
RGQTNRPHDRNGSVPSAECS | < -0.25
RGQVRVG | < -0.25
RGRKRLKRYSIPWG | < -0.25

Substance | growth estimate
RGRPVGRG | < -0.25
RGRSFLKHTILR | < -0.25
RGRSR | < -0.25
RGRTYYHAPIRTPGTKERVL | < -0.25
RGSAALDLFPVAMNTENRLF | < -0.25
RGSASRRCVQNLVYSAKGQN | < -0.25
RGSDTDWGVYVTLASIAIRV | < -0.25
RGSFSMPMRGPD | < -0.25
RGSGNERLRLVECPCVSLTI | < -0.25
RGSHTGALIVCI | < -0.25
RGSLAGKSQMSKDG | < -0.25
RGSQCIFTGPLGGRKCFPSD | < -0.25
RGSRKVFPLKEEVPLWVQKL | < -0.25
RGSSRVGY | -0.248
RGTHRLSKHGNVKPLRAGCI | -0.158
RGTNRTPAEGLVRHW | < -0.25
RGTQGCRSKRLE | < -0.25
RGTQIGHAGRDWLSPPWSAG | < -0.25
RGVAKDARYTVNPLALLGTT | < -0.25
RGVGSTRKGPTLAKCVPGLL | < -0.25
RGVPRLLRLLTGVGACTD | < -0.25
RGVQSSELPSLTSITLV | < -0.25
